Test results published in paper PMC10276164.
These are yes or no findings as the source states them, for the method shown. Binding seen in cells or lysates may run through a third protein. Some binding calls cover weakened binding; strength is not graded here.

Amino acid sequences for entries named in this document (tags omitted). Residues count along the entry.
UniProt P23385, residues 19-1199: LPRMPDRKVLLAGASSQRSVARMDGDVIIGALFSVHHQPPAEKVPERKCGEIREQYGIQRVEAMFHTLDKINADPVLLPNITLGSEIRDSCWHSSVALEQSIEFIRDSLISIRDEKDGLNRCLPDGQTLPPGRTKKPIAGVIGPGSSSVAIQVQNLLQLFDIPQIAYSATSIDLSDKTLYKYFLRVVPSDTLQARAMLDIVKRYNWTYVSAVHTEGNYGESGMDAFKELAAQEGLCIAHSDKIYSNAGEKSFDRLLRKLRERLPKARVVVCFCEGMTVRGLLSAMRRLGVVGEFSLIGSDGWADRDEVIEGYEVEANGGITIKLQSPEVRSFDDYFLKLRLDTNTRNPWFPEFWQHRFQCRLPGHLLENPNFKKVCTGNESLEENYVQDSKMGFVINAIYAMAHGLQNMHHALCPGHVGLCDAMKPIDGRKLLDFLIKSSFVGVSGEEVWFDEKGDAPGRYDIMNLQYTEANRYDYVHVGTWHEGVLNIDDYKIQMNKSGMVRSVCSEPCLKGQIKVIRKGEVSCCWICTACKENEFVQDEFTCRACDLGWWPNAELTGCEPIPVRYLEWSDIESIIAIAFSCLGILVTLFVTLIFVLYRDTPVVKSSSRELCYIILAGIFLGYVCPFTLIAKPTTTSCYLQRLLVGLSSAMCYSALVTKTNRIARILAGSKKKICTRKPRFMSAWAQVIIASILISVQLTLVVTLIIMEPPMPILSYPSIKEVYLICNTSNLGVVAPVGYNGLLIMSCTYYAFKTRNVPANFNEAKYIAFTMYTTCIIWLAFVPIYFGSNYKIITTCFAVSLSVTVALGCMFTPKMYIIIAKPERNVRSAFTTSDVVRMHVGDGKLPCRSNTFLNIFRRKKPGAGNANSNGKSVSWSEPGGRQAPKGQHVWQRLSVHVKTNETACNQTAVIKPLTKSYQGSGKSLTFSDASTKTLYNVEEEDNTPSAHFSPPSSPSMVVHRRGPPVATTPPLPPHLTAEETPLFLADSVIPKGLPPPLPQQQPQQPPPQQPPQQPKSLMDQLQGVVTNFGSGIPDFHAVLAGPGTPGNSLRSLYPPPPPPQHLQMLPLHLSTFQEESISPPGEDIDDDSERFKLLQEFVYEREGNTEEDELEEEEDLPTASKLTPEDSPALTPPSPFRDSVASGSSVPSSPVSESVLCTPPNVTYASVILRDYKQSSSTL
UniProt Q62083: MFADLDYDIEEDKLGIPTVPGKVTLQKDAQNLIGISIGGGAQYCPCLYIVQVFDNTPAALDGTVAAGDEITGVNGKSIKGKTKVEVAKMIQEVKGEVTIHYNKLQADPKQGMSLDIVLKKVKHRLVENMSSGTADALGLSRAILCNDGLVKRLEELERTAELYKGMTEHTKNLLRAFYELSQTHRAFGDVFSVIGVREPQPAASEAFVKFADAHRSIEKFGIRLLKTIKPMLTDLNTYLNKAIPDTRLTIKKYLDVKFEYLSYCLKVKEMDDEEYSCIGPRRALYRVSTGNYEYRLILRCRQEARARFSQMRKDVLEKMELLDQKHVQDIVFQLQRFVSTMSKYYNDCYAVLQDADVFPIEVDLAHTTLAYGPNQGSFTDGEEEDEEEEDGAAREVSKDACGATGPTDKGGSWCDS

Target: FLAG-mGluR1 (metabotropic glutamate receptor 1) (UniProt P23385)
Assay: co-IP; anti-FLAG antibody on protein A/G beads, lysate of primary neurons transfected with FLAG-mGluR1 (72 h); TAP lysis buffer (20 mM Tris pH 8.0, 150 mM NaCl, 0.5% NP-40, 1 mM MgCl2, 1 mM Na3VO4); cells untreated or treated with 100 uM R,S-DHPG for 5 min; blots for FLAG and PICK1

binding: binds
Substance: Protein interacting with C kinase 1 (PICK1) (from UniProt Q62083 1-416)
